The target of the assay is EGFR-GFP (UniProt P00533). Kind of assay: co-IP; GFP affinity co-purification: EGFR-GFP captured on GBP (GFP-binding protein)-sepharose beads from lysates of transfected MCF7 cells (wild type or GNAI3 KO; with or without C18:0 or C18:1, 100 uM, 3 h or 24 h; with or without GNAI3 overexpression). Cells were treated with or without EGF 50 ng/mL for 5 min, then cross-linked with 0.5 mM DSP before lysis. Lysis buffer 800 mM NaCl, 1% NP-40; washes 300 mM NaCl, 0.1% NP-40. Gab1 detected by immunoblot. (In western blotting, separated proteins are transferred to a membrane and probed.)

These are yes or no findings as the source states them, for the method shown. In cells and extracts the contact can be indirect. Some results given as binding are weak or reduced against the parent protein; the word gives no strength.

B1: Gab1 (growth-factor receptor binding 2 (Grb2)-associated binding protein 1) (protein, UniProt Q13480 1-694)
chain: MSGGEVVCSGWLRKSPPEKKLKRYAWKRRWFVLRSGRLTGDPDVLEYYKNDHAKKPIRIIDLNLCQQVDAGLTFNKKEFENSYIFDINTIDRIFYLVADSEEEMNKWVRCICDICGFNPTEEDPVKPPGSSLQAPADLPLAINTAPPSTQADSSSATLPPPYQLINVPPHLETLGIQEDPQDYLLLINCQSKKPEPTRTHADSAKSTSSETDCNDNVPSHKNPASSQSKHGMNGFFQQQMIYDSPPSRAPSASVDSSLYNLPRSYSHDVLPKVSPSSTEADGELYVFNTPSGTSSVETQMRHVSISYDIPPTPGNTYQIPRTFPEGTLGQTSKLDTIPDIPPPRPPKPHPAHDRSPVETCSIPRTASDTDSSYCIPTAGMSPSRSNTISTVDLNKLRKDASSQDCYDIPRAFPSDRSSSLEGFHNHFKVKNVLTVGSVSSEELDENYVPMNPNSPPRQHSSSFTEPIQEANYVPMTPGTFDFSSFGMQVPPPAHMGFRSSPKTPPRRPVPVADCEPPPVDRNLKPDRKVKPAPLEIKPLPEWEELQAPVRSPITRSFARDSSRFPMSPRPDSVHSTTSSSDSHDSEENYVPMNPNLSSEDPNLFGSNSLDGGSSPMIKPKGDKQVEYLDLDLDSGKSTPPRKQKSSGSGSSVADERVDYVVVDQQKTLALKSTREAWTDGRQSTESETPAKSVK
In the case of B1, the binding entry is “binds”.

These data come from article PMC8319428.
